Measured data: PubChem BioAssay AID1224826 (NIAID, 2016)

Screen: 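Genes that change LPS-induced Tnf promoter activity in mouse macrophages when knocked down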 (primary screen)
System: RAW264.7 G9 macrophages from mouse bearing reporters for p65 (GFP) and the Tnf promoter (mCherry)
Reagents: siRNA pool against mouse genes, 100 nM
Time to read-out: 16 h of LPS stimulation, after 2 days of siRNA transfection
Treatment: bacterial lipopolysaccharide (Salmonella minnesota R595), 10 ng/ml
Measurement: 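Imaged Tnf reporter mCherry in nuclei, minus background, normalised per plate to the median and expressed as robust z-scores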
Scale: Tnf reporter robust z-score: higher = stronger Tnf promoter reporter signal after LPS; Tnf reporter intensity: higher = stronger Tnf promoter reporter signal
Hit rule: 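Called active when robust z-score is at most -1.3, matching the median of the Tlr4 knock-down control, or over 3; control wells and wells with under 50 cells never active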
Calls: active = Tnf reporter clearly lowered or raised; inactive = no clear change in Tnf reporter
The whole screen tested about 17,000 reagents; below is a random part of them. In the full data, about 1,110 (6.6%) got an active call. 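Active means lowered or raised reporter signal; replicate intensities are raw and not normalised per plate.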 The numbers tell different reagents against one gene apart. Some reagents were tested in more than one well and are listed for each.

The opening 4 records, to show the layout:
no.	gene knocked down	pool no.	Tnf reporter robust z-score	fewer than 50 cells in well	Tnf reporter intensity, replicate 1	Tnf reporter intensity, replicate 2	Outcome
1	Btbd6	1	1.75	enough cells in well	34.4	264	inactive
2	Fbxl4	1	-0.54	enough cells in well	209	165	inactive
3	Zbed4	1	1.93	enough cells in well	333	225	inactive
4	Acp6	1	1.16	enough cells in well	260	206	inactive

The list itself, repeating the preview:
no.	gene knocked down	pool no.	Tnf reporter robust z-score	fewer than 50 cells in well	Tnf reporter intensity, replicate 1	Tnf reporter intensity, replicate 2	Outcome
1	Btbd6	1	1.75	enough cells in well	34.4	264	inactive
2	Fbxl4	1	-0.54	enough cells in well	209	165	inactive
3	Zbed4	1	1.93	enough cells in well	333	225	inactive
4	Acp6	1	1.16	enough cells in well	260	206	inactive
5	Acyp2	1		fewer than 50 cells per well; well left out of calls	70.6	83.6	inactive
6	Vmn1r201	1	0.76	enough cells in well	130	128	inactive
7	Opalin	1	-0.24	enough cells in well	128	68.4	inactive
8	Irak4	1	-1.14	enough cells in well	127	107	inactive
9	Nsun7	1	3.44	enough cells in well	360	147	active
10	Serpina3c	1	0.35	enough cells in well	117	109	inactive
11	Actg2	1	-0.25	enough cells in well	145	166	inactive
12	Tgfb1i1	1	-0.27	enough cells in well	252	96	inactive
13	Traf4	1	0.29	enough cells in well	285	213	inactive
14	Gzmb	1	0.43	enough cells in well	309	255	inactive
15	Cdk5	1	1.34	enough cells in well	312	206	inactive
16	Or5j3	1	1.04	enough cells in well	259	199	inactive
17	Sox10	1	-0.72	enough cells in well	185	185	inactive
18	Mfsd11	1	0.77	enough cells in well	310	33.1	inactive
19	C1rl	1	2.02	enough cells in well	212	237	inactive
20	Cel	1	1.2	enough cells in well	325	312	inactive
21	PLEKHK1	1		fewer than 50 cells per well; well left out of calls	41.4	46.6	inactive
22	Hmgcr	1	1.67	enough cells in well	341	320	inactive
23	Ube2g1	1	0.91	enough cells in well	305	295	inactive
24	Rgs1	1	-0.93	enough cells in well	255	41.1	inactive
25	Sir2l1	1	-0.19	enough cells in well	120	127	inactive
26	Lmcd1	1	-1.82	enough cells in well	93	40.2	active
27	Npbwr1	1	-0.11	enough cells in well	203	293	inactive
28	Svil	1	-0.97	enough cells in well	191	142	inactive
29	Mob3a	1	1.35	enough cells in well	316	240	inactive
30	Fam181b	1	-0.15	enough cells in well	172	134	inactive
31	Pold3	1	-1.93	enough cells in well	51.1	39.8	active
32	Trp53i11	1	-0.8	enough cells in well	202	78	inactive
33	Or7a35	1	0.56	enough cells in well	218	162	inactive
34	Vamp1	1	-1.2	enough cells in well	86.4	40.6	inactive
35	Ccdc142	1	1.24	enough cells in well	231	230	inactive
36	4930429B21Rik	1		fewer than 50 cells per well; well left out of calls	358	116	inactive
37	Por	1	-0.81	enough cells in well	169	149	inactive
38	Scarb1	1	0.04	enough cells in well	366	172	inactive
39	Fam131b	1	-0.56	enough cells in well	155	120	inactive
40	Slc46a2	1	-0.3	enough cells in well	98.2	87.2	inactive
41	Slc61a1	1	0.57	enough cells in well	237	164	inactive
42	Bex1	1	-0.76	enough cells in well	73	117	inactive
43	Ccnq	1	-0.49	enough cells in well	209	56.8	inactive
44	Pold2	1	-0.08	enough cells in well	141	111	inactive
45	Lrrc7	1	-0.63	enough cells in well	129	137	inactive
46	Or4n5	1	0.09	enough cells in well	102	120	inactive
47	Acot3	1	-1.32	enough cells in well	85.4	58	active
48	Tmem106a	1	-0.61	enough cells in well	176	151	inactive
49	Pik3cg	1	0.64	enough cells in well	222	211	inactive
50	Pik3cg	1	0.06	enough cells in well	284	88.5	inactive
51	Ccr4	1	0.61	enough cells in well	228	411	inactive
52	Tm7sf3	1	-0.34	enough cells in well	288	64.6	inactive
53	9430015G10Rik	1	-0.98	enough cells in well	130	118	inactive
54	Adam6a	1	-0.4	enough cells in well	206	136	inactive
55	Mcptl	1	0.29	enough cells in well	175	189	inactive
56	Atxn10	1	1.23	enough cells in well	176	186	inactive
57	Gys1	1	-0.82	enough cells in well	202	156	inactive
58	Gys1	2	-0.07	enough cells in well	248	154	inactive
59	Pank1	1		fewer than 50 cells per well; well left out of calls	113	119	inactive
60	Spata1	1	-0.03	enough cells in well	204	65.9	inactive
61	Npy5r	1	2.17	enough cells in well	355	186	inactive
62	Sall4	1	0.49	enough cells in well	354	242	inactive
63	Macroh2a1	1	-0.27	enough cells in well	227	220	inactive
64	1700123O20Rik	1	-0.16	enough cells in well	203	64.8	inactive
65	Arl2bp	1	-0.55	enough cells in well	175	99.6	inactive
66	Rspo2	1		fewer than 50 cells per well; well left out of calls	122	35	inactive
67	Mrtfb	1	-0.5	enough cells in well	180	154	inactive
68	Mrtfb	2	0.05	enough cells in well	309	175	inactive
69	Gch1	1	0.3	enough cells in well	310	234	inactive
70	Hipk4	1		fewer than 50 cells per well; well left out of calls	139	230	inactive
71	Cyp1a1	1	1.07	enough cells in well	310	286	inactive
72	Trappc2	1	-0.02	enough cells in well	114	95.2	inactive
73	Myadm	1	-1.55	enough cells in well	107	51.7	active
74	Slc10a6	1	1.92	enough cells in well	297	311	inactive
75	Or1q1	1	-1.55	enough cells in well	99.5	48.4	active
